Measured values as given in publication PMC11178869.
No constants are given. Whether binding was seen depends on the method and setting. For some assays here: In cells and extracts the contact can be indirect. Some binding calls cover weakened binding; strength is not graded here. For some assays here: Sequences can lack the tags named with a protein.

Legend:
[1] = target: T1, TatC(L189A) with C-terminal hexahistidine tag (E. coli) (UniProt P69423); test: pull-down; co-purification with C-terminally H6-tagged TatC on Ni-NTA agarose from membranes solubilized with 2% digitonin (50 mM Bis-Tris pH 7.0, 0.1% digitonin, 20% sucrose, MgCl2); eluate analysed by SDS-PAGE/silver stain and Western blot with antisera against TatA, TatB, TatC or EfeB; cells without or with overproduced EfeB
T1 sequence: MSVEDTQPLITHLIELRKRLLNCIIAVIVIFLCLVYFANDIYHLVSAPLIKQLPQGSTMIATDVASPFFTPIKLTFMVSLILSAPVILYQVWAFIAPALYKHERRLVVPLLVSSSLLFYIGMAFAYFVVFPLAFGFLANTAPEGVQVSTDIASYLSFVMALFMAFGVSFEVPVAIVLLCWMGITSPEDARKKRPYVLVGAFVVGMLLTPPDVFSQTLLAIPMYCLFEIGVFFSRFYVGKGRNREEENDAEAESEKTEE

[2] = target: T2, TatC with C-terminal hexahistidine tag, wild type (TatABC system) (E. coli) (UniProt P69423); test: as above
T2 sequence: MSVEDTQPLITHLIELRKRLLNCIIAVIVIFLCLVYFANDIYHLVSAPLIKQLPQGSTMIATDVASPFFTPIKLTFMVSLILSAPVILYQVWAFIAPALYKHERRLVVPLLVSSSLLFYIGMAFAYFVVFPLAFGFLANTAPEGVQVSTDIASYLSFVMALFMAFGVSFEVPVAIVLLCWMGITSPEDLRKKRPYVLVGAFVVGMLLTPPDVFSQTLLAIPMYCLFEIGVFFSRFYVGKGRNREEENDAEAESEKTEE

[3] = target: T3, TatC(Y154A) with C-terminal hexahistidine tag (E. coli) (UniProt P69423); test: as above
T3 sequence: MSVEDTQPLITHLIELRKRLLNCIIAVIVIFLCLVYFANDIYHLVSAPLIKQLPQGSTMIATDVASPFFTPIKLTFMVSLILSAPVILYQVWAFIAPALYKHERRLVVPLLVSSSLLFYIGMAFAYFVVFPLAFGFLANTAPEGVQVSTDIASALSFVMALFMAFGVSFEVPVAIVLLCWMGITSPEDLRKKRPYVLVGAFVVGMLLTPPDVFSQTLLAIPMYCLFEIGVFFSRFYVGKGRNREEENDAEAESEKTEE

[4] = target: T4, TatC(I50Y) with C-terminal hexahistidine tag (E. coli) (UniProt P69423); test: as above
T4 sequence: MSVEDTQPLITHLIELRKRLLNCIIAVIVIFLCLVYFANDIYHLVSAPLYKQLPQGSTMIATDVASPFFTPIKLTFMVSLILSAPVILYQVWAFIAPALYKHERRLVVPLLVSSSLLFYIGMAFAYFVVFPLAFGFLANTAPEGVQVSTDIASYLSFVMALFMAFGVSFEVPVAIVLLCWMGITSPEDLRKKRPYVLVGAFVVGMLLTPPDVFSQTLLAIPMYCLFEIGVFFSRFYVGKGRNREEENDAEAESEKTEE

[5] = target: T1, TatC(L189A) with C-terminal hexahistidine tag (E. coli); test: native gel or EMSA; BN-PAGE/Western blot (antisera against TatA, TatB, TatC) of digitonin-solubilized membranes and of Ni-NTA-purified samples; cells without or with overproduced EfeB
[6] = target: T2, TatC with C-terminal hexahistidine tag, wild type (TatABC system) (E. coli); test: as above
[7] = target: T3, TatC(Y154A) with C-terminal hexahistidine tag (E. coli); test: as above
[8] = target: T4, TatC(I50Y) with C-terminal hexahistidine tag (E. coli); test: as above
[9] = target: TatA (E. coli) (UniProt P69428); test: as above

Measured: binding

B1: TatA (protein, UniProt P69428 1-89)
chain: MGGISIWQLLIIAVIVVLLFGTKKLGSIGSDLGASIKGFKKAMSDDEPKQDKTSQDADFTAKTIADKQADTNQEQAKTEDAKRHDKEQV
binds: all assays above

B2: TatB (protein, UniProt P69425 1-171)
chain: MFDIGFSELLLVFIIGLVVLGPQRLPVAVKTVAGWIRALRSLATTVQNELTQELKLQEFQDSLKKVEKASLTNLTPELKASMDELRQAAESMKRSYVANDPEKASDEAHTIHNPVVKDNEAAHEGVTPAAAQTQASSPEQKPETTPEPVVKPAADAEPKTAAPSPSSSDKP
not listed: [9]
binds: all other assays above
